Laboratory results from PubChem BioAssay AID1347426 (Functional Genomics Laboratory (NCATS/FGL), 2020).
Hit rate of the full screen: of about 31,000 sequences, about 1,400 (4.5%) were called active.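 The calls were made as follows: active = median seed-adjusted z-score above 1 or below -1; inactive = the rest.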 The list shows a part of the results.

Test: Novel Modifiers of Survival Motor Neuron (SMN) Protein: Gene Identification via Genome-wide siRNA Screen;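 also: luminescence tracks full-length SMN protein made from the SMN2 reporter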
Conditions: HEK293T SMN2-luciferase reporter, siRNA knockdown, 72 h; actives lie on both sides
In short: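 Steps: spot 1 pmol siRNA, add Lipofectamine RNAiMax in serum-free DMEM, seed HEK293T SMN2–luciferase reporter cells; incubate 72 h at 37 °C; add ONE-Glo; normalize luminescence to control siRNA, log10, MAD. Candidates: |MAD| > 1.0.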
In the case of CCCUUCGAGUGAAGAAGAATT against STYXL1, the median seed-adjusted z-score is reported as inactive: -0.311. In the case of CCACGGCAAGUUAAAAUCATT against CD84, the median seed-adjusted z-score is reported as inactive: 0.629. In the case of GGUUGAUCACAGACGAUUATT against CYP2R1, the median seed-adjusted z-score is reported as inactive: -0.981. In the case of CCUGUGAUAUUGGAACCUUTT against SYT14, the median seed-adjusted z-score is reported as inactive: 0.0794. With GGCCUUCACCAACAGCAAATT against DNASE1L3 the median seed-adjusted z-score was inactive: 0.0678. With GGACGGCAUGACUAUCAAATT against SART3 the median seed-adjusted z-score was inactive: 0. With CGACUAUGCUUUAGAUUAUTT against MAS1 the median seed-adjusted z-score was inactive: -0.0551. In the case of GGAUUGCCGGGUACUACUATT against GPR132, the median seed-adjusted z-score is reported as inactive: 0. For CUGCCUAUGUUUAUUCGUATT against VPS13B, the median seed-adjusted z-score was inactive: 0. In the case of UCAUCACCGUGUCCAAUCATT against TAZ, the median seed-adjusted z-score is reported as inactive: 0.0549. For AGGACUUCGAGAAAGCAUATT against PSMC4, the median seed-adjusted z-score was inactive: -0.361. For CCGACUCUCUGAUACUGCATT against UNC5C, the median seed-adjusted z-score was inactive: 0.0496. In the case of GGCGAAAUCAGCUUCCAGGTT against CALML5, the median seed-adjusted z-score is reported as inactive: -0.175. With CCUUACCACGAAACCCAAATT against ING5 the median seed-adjusted z-score was inactive: -0.193. In the case of GCAGAGAUCAGCAACGUGATT against KRT77, the median seed-adjusted z-score is reported as inactive: -0.0863. In the case of ACAAAAAGGAUGCACCUGUTT against NTHL1, the median seed-adjusted z-score is reported as inactive: 0.364. For GCACGACUGUUACUGGACUTT against POLRMT, the median seed-adjusted z-score was inactive: 0.0812. With CAAAUCAUCAGAUCACUAATT against SPTLC3 the median seed-adjusted z-score was inactive: 0.279. In the case of CAAGAAGUCAUAUUGAGAATT against ZNF430, the median seed-adjusted z-score is reported as inactive: 0.681. With CAGCUGAAAUGUACGACAATT against SGK1 the median seed-adjusted z-score was inactive: -0.659. For GGGUCGAUACAUAUGCUCATT against DOCK9, the median seed-adjusted z-score was inactive: 0.61. For GUAAUUCCAGAUACGCUUATT against UGCG, the median seed-adjusted z-score was inactive: 0.492. With GAGAAGACGUGAAACAGUATT against GNAO1 the median seed-adjusted z-score was inactive: 0.233. For GAUUUAUCGCAAAAACUGATT against HS6ST1, the median seed-adjusted z-score was inactive: -0.436. With AGAGUGUGCCGGUCAUCAATT against HNF1A the median seed-adjusted z-score was inactive: -0.436. With GGAGUACAGCAGUGAGCAATT against TRIB3 the median seed-adjusted z-score was inactive: 0.00635. With AGACCACAGUAUGCCGAAATT against MORF4 the median seed-adjusted z-score was inactive: 0.0121. In the case of UCAUCAAUGCUACUGGUUATT against TM7SF2, the median seed-adjusted z-score is reported as inactive: -0.674. With GGAUCAAUGGGACACCUUUTT against APCS the median seed-adjusted z-score was inactive: 0.0494. In the case of GGACUUUAAUCUUACCGAUTT against ITGA1, the median seed-adjusted z-score is reported as inactive: 0.0281. For GAGACUGUGCAGAUGUAUATT against ANGPT1, the median seed-adjusted z-score was inactive: 0.289. With CUGUAGGAUUAAUUGCAAATT against SLC16A7 the median seed-adjusted z-score was inactive: 0. With CGAUCCUGAUUAUUCGUUUTT against ATE1 the median seed-adjusted z-score was inactive: 0.569. With GUGUCUUCUUAAUCCGUAUTT against ZXDB the median seed-adjusted z-score was inactive: 0.186. With GCGCAGACAUUUUAGCCUATT against XPNPEP3 the median seed-adjusted z-score was inactive: -0.282. In the case of AGCCUAUGAUUUUCCUGAATT against PTF1A, the median seed-adjusted z-score is reported as inactive: 0.482. With GCUUCUCAUCGCUACUAUATT against MBD4 the median seed-adjusted z-score was inactive: -0.107. With CGAUCUCACAAGAAGCCUATT against TBCB the median seed-adjusted z-score was inactive: 0.69. With AGUUCUGUCUGUUCACGAATT against OAS2 the median seed-adjusted z-score was inactive: 0.0758. For CUCUGUGAAUUUGAAAUCATT against SNED1, the median seed-adjusted z-score was inactive: 0.148. In the case of CCAGAUUGAUCGACCAGCATT against RUVBL2, the median seed-adjusted z-score is reported as inactive: -0.0764. With ACAUCGUCACUGAUCAGAATT against PTPRN the median seed-adjusted z-score was inactive: -0.272. With GGAUCACGCAGCUCAAGAUTT against TBX1 the median seed-adjusted z-score was inactive: -0.744. For GGUCUACACCGGAUAUCGATT against PKD1L3, the median seed-adjusted z-score was inactive: -0.658. With CAGUGAGGUGAAACAAAUATT against DNAJC8 the median seed-adjusted z-score was active: -1.62. For CCAUGAACCGCACACCUGUTT against ACY1, the median seed-adjusted z-score was inactive: -0.153. With CAGAACCCAUAUUAACUAUTT against HADHA the median seed-adjusted z-score was inactive: 0.47. For GCAUGCAGGUGGGCAAGAATT against APOB48R, the median seed-adjusted z-score was inactive: 0.386. For GCCCAGAUCUGCAUAGACATT against COL6A1, the median seed-adjusted z-score was inactive: 0.509. With GAAAGAUCAAGGACCGGUATT against LMO3 the median seed-adjusted z-score was inactive: 0.496. With AUGGAAUUUUAUAAGCUGATT against TSPO the median seed-adjusted z-score was inactive: -0.206. In the case of GGUUGCCUGUGGUAUAAGATT against NRD1, the median seed-adjusted z-score is reported as inactive: 0.0825. With GUCAAGCACUGGUACCAAATT against OAS1 the median seed-adjusted z-score was inactive: 0.442. With ACAGUAUGCUGAAAUUCUUTT against MORF4L1 the median seed-adjusted z-score was inactive: 0.225. For UCCACUGACUCGUAAAGUUTT against PROK2, the median seed-adjusted z-score was inactive: -0.00826. In the case of GGAUGAUGCCUUCAAUACUTT against RAB10, the median seed-adjusted z-score is reported as inactive: -0.319. With CUACCUGAGUAUAAGGAUATT against INSL6 the median seed-adjusted z-score was inactive: 0.777. In the case of GGCUAACAUUGACCUGGAATT against TNFRSF17, the median seed-adjusted z-score is reported as inactive: -0.0138. With AGACAGGGCUGGUUAAACUTT against BRSK1 the median seed-adjusted z-score was inactive: -0.0495. With GCAGGUCAGUUCAAGUAGATT against SLC17A1 the median seed-adjusted z-score was inactive: -0.271. In the case of GGUUGAAGCUUACUCCGGATT against DHX9, the median seed-adjusted z-score is reported as inactive: -0.687. With CUACGAAUCUGUGAAUGAATT against ERH the median seed-adjusted z-score was active: -1.25. For GCUUUGGACUGAGAUGGUUTT against PBLD, the median seed-adjusted z-score was inactive: -0.0809. In the case of GCAGUGACAUAGCAUCUGATT against ATP8B3, the median seed-adjusted z-score is reported as inactive: 0. For CAUUUAUGAGUGUAGUAAATT against ZNF674, the median seed-adjusted z-score was inactive: 0.234. For GCGUGUUACACGUUCCCAATT against MLLT4, the median seed-adjusted z-score was inactive: -0.0762. In the case of GGCUUGUGGUUUAUCAUUUTT against MS4A8B, the median seed-adjusted z-score is reported as inactive: 0.207. For GGAGUAGAUUUUAGCAUAATT against TNKS2, the median seed-adjusted z-score was inactive: 0.0545. For AGGUGAUGUUCGUCAACAATT against SLC14A2, the median seed-adjusted z-score was inactive: 0.00107. For UAAUGACCUUUGAAAAAGUTT against MBL2, the median seed-adjusted z-score was inactive: -0.252. In the case of CUGGAAGACUACUACUGGATT against MAF, the median seed-adjusted z-score is reported as inactive: -0.418. For CGCUCAAGUUCUUCCGCAATT against PDIA2, the median seed-adjusted z-score was inactive: 0.151. With UGAAGUUGCUGGACGCGUATT against DAD1 the median seed-adjusted z-score was inactive: -0.45. With CUACAACUGUGGAGGUCUATT against LIN28 the median seed-adjusted z-score was inactive: -0.348. With CCUAAAACCUAGUAAUCUATT against MAPK14 the median seed-adjusted z-score was inactive: 0.142. In the case of CAAUCAAUGGAGAAGAUAUTT against NFYB, the median seed-adjusted z-score is reported as inactive: -0.29. With GGAUACUAUUGCUAAGGUATT against RECK the median seed-adjusted z-score was inactive: -0.000321. In the case of CAUCAAUUCUAGAUCUUCATT against KERA, the median seed-adjusted z-score is reported as inactive: 0.238. In the case of GCCGAGCUCUUUAUCCUCUTT against TRHDE, the median seed-adjusted z-score is reported as inactive: 0.429. With GUAAGUUACAAGAACGGAATT against DYNC2H1 the median seed-adjusted z-score was inactive: -0.613. With AAGCGGAGCUGGUACCUUATT against POMGNT1 the median seed-adjusted z-score was inactive: -0.0431. For GAAUAACCCAAGUCGCUAUTT against BRIP1, the median seed-adjusted z-score was inactive: 0.312. In the case of GCCCAUUGGAUAUCAGUAUTT against STRADB, the median seed-adjusted z-score is reported as inactive: 0.21. For GCUUUACAACAAUCACAUATT against AMIGO2, the median seed-adjusted z-score was inactive: -0.258. With GGAUUAUAUCGUGAACCUUTT against ZNF285A the median seed-adjusted z-score was inactive: 0.148. In the case of GCUUCAGCUCCAAAACCAATT against ZNF467, the median seed-adjusted z-score is reported as inactive: 0. In the case of GGACAUUCGGGAACAGUCUTT against RIN1, the median seed-adjusted z-score is reported as inactive: -0.0694. In the case of GCUAUUGUCAAUAAGGAUATT against ZFPM2, the median seed-adjusted z-score is reported as inactive: 0.087. In the case of GGUUGCAAGAGGACUCUUATT against DUS4L, the median seed-adjusted z-score is reported as inactive: 0.525. For GCUAGUGCGUUUCUCUAUATT against CATSPER2, the median seed-adjusted z-score was inactive: -0.653. In the case of GGUAAAGAGAGCAAAAAGATT against EHD1, the median seed-adjusted z-score is reported as inactive: -0.616. In the case of GUUCCAAACUUAUUACGCATT against ZNF544, the median seed-adjusted z-score is reported as inactive: -0.00739. In the case of GCAUCUACCUAGGAGACAATT against LRAT, the median seed-adjusted z-score is reported as inactive: 0.345. For ACUCCUCUCUGUUAAUGGATT against LIN7C, the median seed-adjusted z-score was inactive: 0.021. With CUAUCUUUUCGGUUGUGAATT against NPM1 the median seed-adjusted z-score was inactive: 0.141. For UGUCCUUGGUGAUAGAAAUTT against CITED2, the median seed-adjusted z-score was inactive: -0.0248. With GCUUCCAACUGCUUAUAUATT against TP53RK the median seed-adjusted z-score was inactive: 0. In the case of CCUUGAAUGUCUACCACAATT against GNPNAT1, the median seed-adjusted z-score is reported as inactive: 0.313. With GAUUGAUAGCUGUACGUAUTT against CBL the median seed-adjusted z-score was inactive: -0.417. In the case of GCAUGAACCCGGUGAUCUATT against CCR3, the median seed-adjusted z-score is reported as inactive: -0.334. In the case of AAAUCACACCAAACACUUATT against STX11, the median seed-adjusted z-score is reported as inactive: -0.518. With GGGCAGAAGUUCAUCAGGATT against PIK3R5 the median seed-adjusted z-score was inactive: 0.799. In the case of CCAAACAAGAGAUCUCUGATT against KRT75, the median seed-adjusted z-score is reported as inactive: 0.0773. With GGCAGAGCCUGUUACCUGATT against RGS11 the median seed-adjusted z-score was inactive: 0. With CGAAGGAUGGUCCCAAAUATT against CAPN13 the median seed-adjusted z-score was inactive: 0.208. With CCAUCGCACAACCCAAAAATT against CLDN8 the median seed-adjusted z-score was inactive: 0.542. For CCGUAUGCAGCACAAGAAATT against SOX10, the median seed-adjusted z-score was inactive: -0.255.
